## Screening data

Source: PubChem BioAssay AID1224904 (Broad Institute, 2016).

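Control-channel Italica luciferase signal in doxycycline-induced 293T-iDUX4 cells, given as percent activity after a 24-hour treatment. The test concentration is not given here. Percent change in the Italica control signal; more negative values mean stronger inhibition, which points to nonspecific, tet-on or cytotoxic effects.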

Values are in %. Common to all entries: measured here: Italica tet-on control reporter. This is a side read-out of the assay, for part of the compounds, not drawn at random.

For COc1cccc(S(=O)(=O)N2CCCCN3[C@H](CO)[C@@H](c4ccc(C#CC5CC5)cc4)[C@H]3C2)c1 the result was activity change -24.91%. For COc1cccc(S(=O)(=O)N2C[C@@H]3N[C@H](C2)C3c2ccc(-c3cccc(C)c3)cc2)c1 (some centres undefined) the result was activity change -10.83%. Result for COc1ccc2c3c([nH]c2c1)[C@H](CO)N(C(=O)Nc1ccc(F)cc1)CC31CN(Cc2cc(-c3ccccc3)on2)C1 was activity change -19.63%. For O=C(C[C@@H]1CC[C@H]2[C@@H](COC[C@H](O)CN2Cc2ccc(C(F)(F)F)cc2)O1)N1CCc2ccccc2C1 the result was activity change -46.41%. Result for CN(C)C(=O)c1ccc(-c2ccc(C3[C@@H]4CN(C(=O)C5CC5)C[C@H]3N4)cc2)cc1 (some centres undefined) was activity change -16.69%. C[C@H]1CN([C@@H](C)CO)C(=O)c2c(c3ccccc3n2C)-c2ccccc2CO[C@@H]1CN(C)Cc1cccc(F)c1 read activity change -7.639%.

CN(C)c1ccc2c(c1)[C@@H]1C[C@H](CC(=O)NCc3ccc(-c4ccccc4)cc3)O[C@@H](CO)[C@@H]1O2 gave activity change -16.01%. Result for CCOC(=O)N(C)C[C@@H]1OCc2ccccc2-c2c(n(C)c3ccccc23)C(=O)N([C@H](C)CO)C[C@@H]1C was activity change -38.57%. Result for C[C@H]1CN([C@@H](C)CO)C(=O)c2c(c3ccccc3n2C)-c2ccccc2CO[C@@H]1CN(C)C(=O)Nc1cccc(F)c1 was activity change -14.42%. Result for O=C(NC1CCCCC1)N1C[C@@H]2N[C@H](C1)C2c1ccc(-c2cccc(F)c2)cc1 (some centres undefined) was activity change -20.5%. Cc1ccc(S(=O)(=O)N2CC[C@H]3[C@H](CO)Nc4ccc(-c5cccc(C(=O)N(C)C)c5)cc4[C@H]32)cc1 read activity change -43.71%. Result for O=C(Nc1cc(F)ccc1F)N[C@@H]1CC[C@@H](CC(=O)N2CCc3ccccc3C2)O[C@@H]1CO was activity change -9.307%.

O=C(CC1CC1)N1CC[C@@H]2[C@H](CO)Nc3ccc(-c4ccc(F)cc4)cc3[C@@H]21 read activity change -17.87%. COc1ccc(C#Cc2ccc([C@@H]3[C@@H](CO)N4CCCCN(C(=O)Cc5ccccc5)C[C@@H]34)cc2)cc1 read activity change -30.25%. With Cc1cccc(-c2ccc([C@H]3[C@@H](CO)N4C(=O)CN(S(=O)(=O)c5cccc(F)c5)C[C@@H]34)cc2)c1 the assay gave activity change -4.024%. With N#Cc1ccc(-c2ccc(C3[C@@H]4CN(Cc5ccccc5F)C[C@H]3N4)cc2)cc1 (some centres undefined) the assay gave activity change -10.46%. COc1ccc2c3c(n(C)c2c1)[C@@H](CO)N(C(=O)C1CC1)CC31CN(Cc2ccccc2OC)C1 read activity change -63.91%. CN1CCN(C(=O)C[C@@H]2CC[C@H]3[C@@H](COC[C@@H](O)CN3Cc3ccc(Oc4ccccc4)cc3)O2)CC1 gave activity change -14.36%.

CN(C)CC(=O)Nc1ccc2c(c1)[C@H]1C[C@@H](CC(=O)NCc3ccc(-c4ccccc4)cc3)O[C@@H](CO)[C@H]1O2 gave activity change -9.74%. C[C@H](CO)N1C[C@H](C)[C@H](CN(C)C(=O)Nc2ccccc2C(F)(F)F)OCc2ccccc2-c2c(n(C)c3ccccc23)C1=O read activity change -74.97%. With COC(=O)[C@@H]1[C@@H](CO)[C@@H]2Cn3c(ccc(-c4ccccc4OC)c3=O)[C@@H]2N1CC1CCCCC1 the assay gave activity change -27.64%. Result for C[C@@H](NC(=O)C[C@@H]1CC[C@@H]2[C@H](COC[C@@H](O)CN2C(=O)Nc2cc(Cl)cc(Cl)c2)O1)c1ccccc1 was activity change -38.76%. CCCC(=O)N1CCC2(CC1)CN(S(=O)(=O)c1ccc(C)cc1)[C@H](CO)c1[nH]c3cc(OC)ccc3c12 gave activity change -20.88%. CC(C)CC#Cc1ccc([C@@H]2[C@H](CO)N3C(=O)CN(C(=O)c4ccc5c(c4)OCO5)C[C@@H]23)cc1 gave activity change -18.2%.

The last 2 entries again:

compound,activity change (%)
CCCC(=O)N1CCC2(CC1)CN(S(=O)(=O)c1ccc(C)cc1)[C@H](CO)c1[nH]c3cc(OC)ccc3c12,-20.88
CC(C)CC#Cc1ccc([C@@H]2[C@H](CO)N3C(=O)CN(C(=O)c4ccc5c(c4)OCO5)C[C@@H]23)cc1,-18.2